Source: patent US20100209537A1, “Metal complexes with anticancer activity” (priority 2009, published 2010)
Some entries share one result that the patent states for a list of compounds.

Tested on: ovarian cancer cell line A2780
Assay: MTT assay, ovarian cancer cell line A2780
Format: cell-based, human
Settings: concentration not given
Protocol: MTT [3-(4,5-dimethylthiazol-2yl)-2,5-diphenyltetrazolium bromide] method:
MTT is used to measure the metabolic activity of viable cells. The assay is non-radioactive and can be performed entirely in a micro titer plate (MTP). It is suitable for measuring cell proliferation, cell viability or cytotoxicity. The reaction produces water-insoluble formazan salt that must be solubilized. Procedure involves culturing the cells in a 96-well micro titer plate, and then incubating them with MTT solution for approximately 2 hours. During incubation period, viable cells convert MTT to a water-insoluble formazan dye. The formazan dye in the MTP is solubilized and quantified with an ELISA plate reader. The absorbance directly correlates with the cell number. This can be applicable for adherent cells cultured in MTP.
Compounds were tested at concentrations of 3 and 30 μg/ml by MTT assay using the ovarian cancer cell line A2780.

Compound	percent survival cells with respect to DMSO-treated controls
Oc1ccc2ccccc2c1C=NNc1nc2ccccc2nc1Cl [RM8, 2-hydroxy-1-naphthaldehyde-1-(3-chloro-2-quinoxalinyl)hydrazone]	< 1%
Oc1ccc2ccccc2c1C=NNc1nc2ccccc2nc1Cl [RM7, 2-hydroxy-1-naphthaldehyde-1-(3-chloro-2-quinoxalinyl)hydrazone]	< 1%
Clc1nc2ccccc2nc1NN=Cc1ccco1 [RM14, 2-furaldehyde-2-(3-chloro-2-quinoxalinyl)hydrazone]	< 1%
Clc1nc2ccccc2nc1NN=Cc1ccccn1 [RM10, 2-pyridinecarbaldehyde-2-(3-chloro-2-quinoxalinyl)hydrazone]	< 1%
Clc1nc2ccccc2nc1NN=Cc1ccccn1 [RM11, 2-pyridinecarbaldehyde-2-(3-chloro-2-quinoxalinyl)hydrazone]	< 1%
Oc1ccccc1C=NNc1nc2ccccc2nc1Cl [RM2, 2-hydroxybenzaldehyde-1-(3-chloro-2-quinoxalinyl) hydrazone]	< 1%
COc1cccc(C=NNc2nc3ccccc3nc2Cl)c1O [RM5, 2-Hydroxy-3-methoxybenzaldehyde-1-(3-chloro-2-quinoxalinyl)-hydrazone]	< 1%
